Assay results as given in PubChem BioAssay AID493014 (National Center for Advancing Translational Sciences (NCATS), 2011).
Out of some 340,000 compounds screened, about 170 (0.05%) were called active. This list was built around the results that the source calls inconclusive (neither active nor inactive); the mix of calls is not that of the screen. The call rests on the fitted dose curve; in most records, active means well fitted inhibition curve with a large enough effect in the signal ratio, with a control signal flat (not every such curve was filed as active); inconclusive means small, poorly fitted or top-dose-only effect, or effect the other way, or a change in a side signal; inactive means flat fitted curve, though single readings scatter; the % refers to the signal ratio. Potencies of inconclusive entries are doubtful fits and often do not repeat.

experiment: qHTS Assay to Find Inhibitors of Chronic Active B-Cell Receptor Signaling; conditions: ABC-DLBCL IkBa-CBG/CBR reporter, luminescence ratio (green luciferase fused to IkBa over red control in TMD8 lymphoma cells), 4 h; activity change, negative = inhibition: at 46.1 µM (top of the series);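 on activity change, negative = inhibition: plate controls were basal doxycycline-induced cells for no effect and cells given 10 µM MG132 for full effect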
In short: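 TMD8 human ABC-DLBCL cells with doxycycline-inducible IκBα–green luciferase fusion and unfused red luciferase, in 0.5% FBS medium; compounds up to 46 uM, 4 h at 37C. Green/red luminescence ratio, filter-overlap corrected, fitted to concentration-response curves.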
Potency means the concentration at half of the fitted maximal effect.

Row | SMILES | activity change, negative = inhibition | Potency
1 | COc1ccccc1CNC(=O)[C@H](C)N1C(=O)N2CCc3c([nH]c4ccccc34)[C@@]2(C)C1=O | inactive | –
2 | Cc1ccccc1C(=O)NNC(=O)c1cccc(Br)c1 | – | inconclusive: 12.6 µM [falling, single point]
3 | C/C=C/Cn1c(N(C)Cc2ccccc2)nc2c1c(=O)[nH]c(=O)n2C | – | inconclusive: 20.6 µM [falling, partial curve, poor fit]
4 | O=C(Nc1nnc(CCN2CCOCC2)s1)c1ccccc1 | – | inconclusive: 4.11 µM [rising, full curve, poor fit]
5 | CNc1ccc(Br)cc(C(=O)/C=C/c2cccc(Cl)c2Cl)c1=O | – | inconclusive: 12.6 µM [falling, partial curve, poor fit]
6 | COc1ccc(CSc2nc3ccccc3c(=O)[nH]2)cc1F | inactive | –
7 | COc1ccc(OC)c(NC=C2C(=O)OC(C)(C)OC2=O)c1 | inconclusive: -23.4% | –
8 | O=C(NC(=S)N1CCN(c2ccc(Cl)cc2[N+](=O)[O-])CC1)c1ccco1 | inconclusive: -0.351% | –
9 | Cc1ccc(-c2nnc(COC(=O)c3cccs3)o2)cc1 | inconclusive: 7.17% | –
10 | O=C(CN1CCN(C2CCCCC2)CC1)c1c[nH]c2ccccc12 | – | inconclusive: 20 µM [falling, single point]
11 | Cc1ccc(S(=O)(=O)N2C(=O)CCC2C(=O)O/N=C(\N)c2ccccc2)cc1 (centres undefined) | inconclusive: 6.95% | –
12 | OCCCNc1nccc(-c2cc(Nc3cccc(Cl)c3)ncn2)n1 | – | inconclusive: 3.55 µM [rising, partial curve, poor fit]
13 | CCOC(=O)c1ccc(Nc2c(-c3ccc(N(C)C)cc3)nc3nc[nH]n23)cc1 | – | inconclusive: 22.4 µM [falling, partial curve]
14 | COCCCNc1oc(-c2ccccc2Cl)nc1C#N | inconclusive: 2.62% | –
15 | CN(C)CCCN(C(=O)c1ccc2ccccc2c1)c1nc2cc3c(cc2s1)OCO3 | inactive | –
16 | Clc1ccc(-c2c[n+](Cc3ccc(Cl)cc3Cl)c3n2CCCCC3)cc1 | inconclusive: 9.82% | –
17 | Cn1c(=O)c2cc(S(=O)(=O)Nc3cccc(F)c3)ccc2n(C)c1=O | inconclusive: 1.27% | –
18 | CSc1nnc(C)c(=O)n1COC(=O)c1cc(Cl)ccc1[N+](=O)[O-] | inconclusive: 18.1% | –
19 | NC(=O)c1c(/N=C/c2cccnc2)sc2c1CCCC2 | inconclusive: 4.7% | –
20 | COc1ccc(-c2cn(Cc3ccc4c(c3)C(=O)c3ccccc3C4=O)nn2)cc1 | inactive | –
21 | Cc1ccc(Cn2cc(C(=O)NN)c(=O)c3ccc(F)cc32)cc1 | – | inconclusive: 31.6 µM [falling, single point]
22 | O=C(NCCN1C(=O)C2C3C=CC(C3)C2C1=O)Nc1cccnc1 (centres undefined) | inconclusive: 3.41% | –
23 | COc1cccc(C2c3[nH]c4ccccc4c3CCN2Cc2ncc[nH]2)c1 (centres undefined) | inactive | –
24 | N#CC(C(=O)c1ccccc1)=C1SCCS1 | inconclusive: -0.651% | –
25 | Cc1ccc(N(CC(=O)NC(C)(C)C)C(=O)CCC(=O)Nc2nccs2)c(C)c1 | inconclusive: -10.8% | –
26 | CCN(CC)S(=O)(=O)c1ccc(N2CCCC2)c(NC(=O)C2CCCCC2)c1 | inconclusive: 0.031% | –
27 | CC(=O)N1CCN(c2ccc(NC(=O)c3ccc(Cl)cc3)cc2)CC1 | inconclusive: 0.0543% | –

Row | SMILES | activity change, negative = inhibition | Potency
28 | COC(=O)c1ccc(NC(=O)CSc2nccn2CCc2ccccc2)cc1 | inconclusive: 13% | –
29 | CC(NC(=O)c1cccs1)c1nnc(SCc2ccc(Cl)cc2Cl)n1C (centres undefined) | inconclusive: -5.07% | –
30 | O=C(COC(=O)c1cc([N+](=O)[O-])ccc1N1CCOCC1)c1ccc(F)cc1 | inconclusive: 0.0833% | –
31 | CC(C)N(C1=N/C(=C\c2ccco2)C(=O)N1c1ccccc1)C(C)C | – | inconclusive: 0.461 µM [rising, full curve, poor fit]
32 | N#Cc1cc(-c2ccccc2)oc1/N=C/c1ccccc1O | inconclusive: -2.4% | –
33 | Cc1ccc(-c2noc(C3CCCN(C(=O)c4ccc(C(C)(C)C)cc4)C3)n2)o1 (centres undefined) | inconclusive: -12.9% | –
34 | CSc1nc(NCc2ccccc2)c2c3c(sc2n1)CN(C)CC3 | inactive | –
35 | CCn1c(CNc2ccccc2Cl)nnc1SCC(=O)NCc1ccccc1 | inconclusive: 4.48% | –
36 | FC(F)(F)c1cccc(CN2CCC(c3cc(-c4cccs4)n[nH]3)CC2)c1 | – | inconclusive: 28.2 µM [falling, single point]
37 | CC(=O)Nc1ccc(S(=O)(=O)N2CCN(Cc3ccncc3)CC2)cc1 | inconclusive: 1.97% | –
38 | CCOc1ccccc1CNS(=O)(=O)c1ccc(-c2cnc(C3CC3)o2)cc1 | – | inconclusive: 12.6 µM [falling, partial curve]
39 | COc1ccc(-n2c(C)nc3c(cnn3-c3ccc(C)cc3)c2=O)cc1 | inconclusive: -1.52% | –
40 | O=C(OCCN1CCCCC1)c1cccc(Cl)c1 | inactive | –
41 | CC(=O)N1CCC2(CC1)C/C(=N\NC(=S)Nc1ccccc1C)c1cc(O)ccc1O2 | – | inconclusive: 15.8 µM [falling, partial curve]
42 | CCc1c(C(=O)N/N=C/c2ccsc2)csc1C | inconclusive: -1.41% | –
43 | COc1ccc(Cn2ccnc2SCC(=O)Nc2ccccc2F)cc1 | inactive | –
44 | Cc1ccc(CNC(=O)c2cnc(-c3ccccn3)nc2C(F)(F)F)cc1 | – | inconclusive: 20.6 µM [falling, single point]
45 | CC(=O)c1c(C)[nH]c(C(=O)N2c3ccccc3CC2C)c1C (centres undefined) | inconclusive: -3.74% | –
46 | Cc1cc(=O)c(C(=O)Nc2cccc(C(=O)NC3CC3)c2)nn1-c1ccccc1Cl | inconclusive: -13.9% | –
47 | CCOc1cc(C2CC(=O)Nc3cc(C)c(C)cc32)ccc1O (centres undefined) | inconclusive: -14.8% | –
48 | COc1ccc(-c2onc(C)c2C)cc1S(=O)(=O)NCCc1ccco1 | – | inconclusive: 17.8 µM [falling, partial curve, poor fit]
49 | CC1CCCC(C)N1S(=O)(=O)c1ccc(NC(=O)CNCC2CCCO2)cc1 (centres undefined) | inconclusive: 0.382% | –
50 | Cc1ccsc1/C=N/NC(=O)c1ccco1 | inconclusive: -18.6% | –
51 | Cc1cc(C(=O)Cn2nc(C(=O)O)c3ccccc3c2=O)c(C)n1-c1ccc(OC(F)F)cc1 | inconclusive: -7% | –
52 | O=C(Nc1ccc(Cl)c(Cl)c1)N1CCSCC1 | – | inconclusive: 18.4 µM [falling, single point]
53 | CCC(=O)c1ccc(N2CCN(S(=O)(=O)c3ccccc3)CC2)c(F)c1 | inconclusive: -16.5% | –
54 | Oc1ccc2ccccc2c1CNc1cnc2ccccc2c1 | – | inconclusive: 18.4 µM [rising, single point]

Rewritten in CSV form: 16 of the compounds above.
Row,SMILES,"activity change, negative = inhibition",Potency
11,Cc1ccc(S(=O)(=O)N2C(=O)CCC2C(=O)O/N=C(\N)c2ccccc2)cc1 (centres undefined),inconclusive: 6.95%,–
12,OCCCNc1nccc(-c2cc(Nc3cccc(Cl)c3)ncn2)n1,–,"inconclusive: 3.55 µM [rising, partial curve, poor fit]"
13,CCOC(=O)c1ccc(Nc2c(-c3ccc(N(C)C)cc3)nc3nc[nH]n23)cc1,–,"inconclusive: 22.4 µM [falling, partial curve]"
14,COCCCNc1oc(-c2ccccc2Cl)nc1C#N,inconclusive: 2.62%,–
15,CN(C)CCCN(C(=O)c1ccc2ccccc2c1)c1nc2cc3c(cc2s1)OCO3,inactive,–
16,Clc1ccc(-c2c[n+](Cc3ccc(Cl)cc3Cl)c3n2CCCCC3)cc1,inconclusive: 9.82%,–
17,Cn1c(=O)c2cc(S(=O)(=O)Nc3cccc(F)c3)ccc2n(C)c1=O,inconclusive: 1.27%,–
18,CSc1nnc(C)c(=O)n1COC(=O)c1cc(Cl)ccc1[N+](=O)[O-],inconclusive: 18.1%,–
19,NC(=O)c1c(/N=C/c2cccnc2)sc2c1CCCC2,inconclusive: 4.7%,–
20,COc1ccc(-c2cn(Cc3ccc4c(c3)C(=O)c3ccccc3C4=O)nn2)cc1,inactive,–
21,Cc1ccc(Cn2cc(C(=O)NN)c(=O)c3ccc(F)cc32)cc1,–,"inconclusive: 31.6 µM [falling, single point]"
22,O=C(NCCN1C(=O)C2C3C=CC(C3)C2C1=O)Nc1cccnc1 (centres undefined),inconclusive: 3.41%,–
23,COc1cccc(C2c3[nH]c4ccccc4c3CCN2Cc2ncc[nH]2)c1 (centres undefined),inactive,–
24,N#CC(C(=O)c1ccccc1)=C1SCCS1,inconclusive: -0.651%,–
25,Cc1ccc(N(CC(=O)NC(C)(C)C)C(=O)CCC(=O)Nc2nccs2)c(C)c1,inconclusive: -10.8%,–
26,CCN(CC)S(=O)(=O)c1ccc(N2CCCC2)c(NC(=O)C2CCCCC2)c1,inconclusive: 0.031%,–

(next part)

Row | SMILES | activity change, negative = inhibition | Potency
55 | O=C(CNC(=O)c1ccc(Br)o1)Nc1cccc(S(=O)(=O)N2CCOCC2)c1 | – | inconclusive: 29.1 µM [falling, single point]
56 | CCOc1ccccc1N(C(=O)Nc1ccc(Cl)cc1)C1=NC(C)CS1 (centres undefined) | inconclusive: 10.9% | –
57 | CC(C)(C)c1ccc(NC(=S)NCc2cccs2)cc1 | inactive | –
58 | O=C(Nc1nncs1)C1CC(=O)N(C2CCCC2)C1 (centres undefined) | inactive | –
59 | Cc1ccccc1CSCC(=O)c1c(N)n(C)c(=O)n(C)c1=O | inactive | –
60 | Clc1ccc(C(c2nnnn2CCc2ccccc2)N2CCSCC2)cc1 (centres undefined) | inconclusive: 10.3% | –
61 | O=C(N/N=C/c1ccccn1)c1cc(-c2cccc3ccccc23)n[nH]1 | inactive | –
62 | CC(C)[C@@H](N)C(=O)N/N=C/c1ccc2ncccc2c1 | inconclusive: -7.32% | –
63 | CCn1c(O)c(N=NC(=O)CNC(=O)/C=C/c2ccccc2)c2ccccc21 | inconclusive: 3.37% | –
64 | CCC1(c2ccc(Cl)cc2)NC(=S)N(c2ccc(C)c(C)c2)N1 (centres undefined) | inconclusive: 22.3% | –
65 | O=C(C1=C[C@@H](c2csc3ccccc23)C[C@@H](OCc2ccc(CO)cc2)O1)N1CCN(Cc2ccc3c(c2)OCO3)CC1 | – | inconclusive: 35.5 µM [falling, single point]
66 | COc1ccc(C=C2c3ccccc3C(=O)c3ccccc32)c(OC)c1 | – | inconclusive: 3.98 µM [falling, full curve, poor fit]
67 | O=C(c1ccc2c(=O)n(Cc3ccc(Cl)cc3)c(=S)[nH]c2c1)N1CCCC1 | inactive | –
68 | Cc1cnc([N+](=O)[O-])n1CCOC(=O)NC(=O)c1ccccc1 | inactive | –
69 | Nc1nonc1-c1nc2ccccc2[nH]1 | inconclusive: 6.27% | –
70 | COc1ccccc1Nc1ccc(NS(=O)(=O)c2ccc(C(C)=O)cc2)cc1 | – | inconclusive: 14.1 µM [falling, partial curve, poor fit]
71 | CCCn1c(=O)c(C(=O)NC(C)c2ccccc2)c(O)c2ccccc21 (centres undefined) | inconclusive: 4.17% | –
72 | COc1ccc(OCC(=O)Nc2ccc3c(c2)nc(CN2CCCC2)n3C)cc1 | – | inconclusive: 0.00461 µM [falling, full curve, poor fit]
73 | O=C1C(Cc2ccccc2)Nc2ncnc(N3CCN(c4ccccc4)CC3)c2N1Cc1ccc(Cl)cc1 (centres undefined) | inactive | –
74 | Cc1onc(-c2ccc(Cl)cc2Cl)c1-c1csc(COc2ccccc2)n1 | inconclusive: 17.1% | –
75 | COc1ccccc1Nc1nnc(SCC(=O)c2c(N)n(C3CC3)c(=O)[nH]c2=O)s1 | – | inconclusive: 1.16 µM [falling, partial curve, poor fit]
76 | O=C(Cn1nnc(-c2ccccc2)n1)NCc1ccc2c(c1)OCO2 | inconclusive: -6.34% | –
77 | Cc1ccc(C(=O)Nc2nnc(-c3ccco3)o2)cc1 | – | inconclusive: 23.1 µM [falling, single point]
78 | CN1CCN(NC(=S)Nc2ccc(Oc3ccccc3)cc2)CC1 | inconclusive: -18.7% | –
79 | COc1ccc(CCN2CC(C(=O)Nc3ccccc3F)CC2=O)cc1OC (centres undefined) | inconclusive: -9.75% | –
